According to the supplement of paper PMC7661543:
Differences between knockout arms are mostly noise.

Tested on: BT-20
Assay: relative cell number vs DMSO control (72 h) (% of DMSO); higher = less growth inhibition (more cells)
Method: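 QMAP-Seq: a pool of 5 breast cancer cell lines (ZR-75-1, SKBR3, HCC-38, MDA-MB-231, BT-20), each carrying 12 doxycycline-inducible Cas9 sgRNA perturbations (11 knockouts plus non-targeting sgNT), was treated with compounds for 72 h at four 10-fold doses (10 nM-10 uM or 1 nM-1 uM range). Barcodes were amplified and sequenced, and cell number was interpolated from 293T spike-in standard curves. The result is expressed as % of the median of DMSO wells. Two biological replicates.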

COc1cc2c(cc1-c1c(C)noc1C)ncc1[nH]c(=O)n([C@H](C)c3ccccn3)c12 [IBET151]
Conditions | relative cell number
sgRNA knockout: sgATF3, 10 nM | 83.7
sgRNA knockout: sgATF3, 100 nM | 86.5
sgRNA knockout: sgATF3, 1000 nM | 71.7
sgRNA knockout: sgATF3, 10000 nM | 61.3
sgRNA knockout: sgATF4, 10 nM | 84.1
sgRNA knockout: sgATF4, 100 nM | 98.8
sgRNA knockout: sgATF4, 1000 nM | 67.8
sgRNA knockout: sgATF4, 10000 nM | 53.1
sgRNA knockout: sgATF6, 10 nM | 95.69
sgRNA knockout: sgATF6, 100 nM | 88.5
sgRNA knockout: sgATF6, 1000 nM | 70.2
sgRNA knockout: sgATF6, 10000 nM | 56.4
sgRNA knockout: sgATG7, 10 nM | 84.2
sgRNA knockout: sgATG7, 100 nM | 85.2
sgRNA knockout: sgATG7, 1000 nM | 74.1
sgRNA knockout: sgATG7, 10000 nM | 60.4
sgRNA knockout: sgERN1, 10 nM | 77.3
sgRNA knockout: sgERN1, 100 nM | 74.5
sgRNA knockout: sgERN1, 1000 nM | 72.5
sgRNA knockout: sgERN1, 10000 nM | 57.3
sgRNA knockout: sgHSF1, 10 nM | 91.2
sgRNA knockout: sgHSF1, 100 nM | 81.2
sgRNA knockout: sgHSF1, 1000 nM | 74.1
sgRNA knockout: sgHSF1, 10000 nM | 63
sgRNA knockout: sgHSF2, 10 nM | 69.3
sgRNA knockout: sgHSF2, 100 nM | 93
sgRNA knockout: sgHSF2, 1000 nM | 63.1
sgRNA knockout: sgHSF2, 10000 nM | 53.9
sgRNA knockout: sgKEAP1, 10 nM | 91.6
sgRNA knockout: sgKEAP1, 100 nM | 101
sgRNA knockout: sgKEAP1, 1000 nM | 65
sgRNA knockout: sgKEAP1, 10000 nM | 57.92
sgRNA knockout: sgNFE2L2, 10 nM | 88.7
sgRNA knockout: sgNFE2L2, 100 nM | 82.29
sgRNA knockout: sgNFE2L2, 1000 nM | 74.7
sgRNA knockout: sgNFE2L2, 10000 nM | 68.3
sgRNA knockout: sgSLC35F2, 10 nM | 90.1
sgRNA knockout: sgSLC35F2, 100 nM | 78.3
sgRNA knockout: sgSLC35F2, 1000 nM | 72.8
sgRNA knockout: sgSLC35F2, 10000 nM | 60.6
sgRNA knockout: sgXBP1, 10 nM | 99.6
sgRNA knockout: sgXBP1, 100 nM | 89.5
sgRNA knockout: sgXBP1, 1000 nM | 69.7
sgRNA knockout: sgXBP1, 10000 nM | 62.5

O=C(/C=C/c1ccc(O)cc1)c1ccc(O)cc1O [Isoliquiritigenin]
Conditions | relative cell number
sgRNA knockout: sgATF3, 10 nM | 86.2
sgRNA knockout: sgATF3, 100 nM | 103
sgRNA knockout: sgATF3, 1000 nM | 93.1
sgRNA knockout: sgATF3, 10000 nM | 93.2
sgRNA knockout: sgATF4, 10 nM | 96
sgRNA knockout: sgATF4, 100 nM | 108
sgRNA knockout: sgATF4, 1000 nM | 101
sgRNA knockout: sgATF4, 10000 nM | 101
sgRNA knockout: sgATF6, 10 nM | 86.3
sgRNA knockout: sgATF6, 100 nM | 96.8
sgRNA knockout: sgATF6, 1000 nM | 110
sgRNA knockout: sgATF6, 10000 nM | 93.4
sgRNA knockout: sgATG7, 10 nM | 86.9
sgRNA knockout: sgATG7, 100 nM | 121
sgRNA knockout: sgATG7, 1000 nM | 99.1
sgRNA knockout: sgATG7, 10000 nM | 100
sgRNA knockout: sgERN1, 10 nM | 99.7
sgRNA knockout: sgERN1, 100 nM | 101
sgRNA knockout: sgERN1, 1000 nM | 94
sgRNA knockout: sgERN1, 10000 nM | 102
sgRNA knockout: sgHSF1, 10 nM | 81.7
sgRNA knockout: sgHSF1, 100 nM | 93.6
sgRNA knockout: sgHSF1, 1000 nM | 93.7
sgRNA knockout: sgHSF1, 10000 nM | 91.3
sgRNA knockout: sgHSF2, 10 nM | 93.5
sgRNA knockout: sgHSF2, 100 nM | 90
sgRNA knockout: sgHSF2, 1000 nM | 102
sgRNA knockout: sgHSF2, 10000 nM | 108
sgRNA knockout: sgKEAP1, 10 nM | 94.6
sgRNA knockout: sgKEAP1, 100 nM | 110
sgRNA knockout: sgKEAP1, 1000 nM | 81
sgRNA knockout: sgKEAP1, 10000 nM | 92.5
sgRNA knockout: sgNFE2L2, 10 nM | 99.9
sgRNA knockout: sgNFE2L2, 100 nM | 99.9
sgRNA knockout: sgNFE2L2, 1000 nM | 89.2
sgRNA knockout: sgNFE2L2, 10000 nM | 96.2
sgRNA knockout: sgSLC35F2, 10 nM | 114
sgRNA knockout: sgSLC35F2, 100 nM | 94.3
sgRNA knockout: sgSLC35F2, 1000 nM | 99.9
sgRNA knockout: sgSLC35F2, 10000 nM | 106
sgRNA knockout: sgXBP1, 10 nM | 107
sgRNA knockout: sgXBP1, 100 nM | 114
sgRNA knockout: sgXBP1, 1000 nM | 99.5
sgRNA knockout: sgXBP1, 10000 nM | 113

COc1cc2nccc(Oc3ccc(NC(=O)NC4CC4)c(Cl)c3)c2cc1C(N)=O [Lenvatinib]
Conditions | relative cell number
sgRNA knockout: sgATF3, 10 nM | 96.5
sgRNA knockout: sgATF3, 100 nM | 109
sgRNA knockout: sgATF3, 1000 nM | 109
sgRNA knockout: sgATF3, 10000 nM | 108
sgRNA knockout: sgATF4, 10 nM | 98.1
sgRNA knockout: sgATF4, 100 nM | 101.8
sgRNA knockout: sgATF4, 1000 nM | 114
sgRNA knockout: sgATF4, 10000 nM | 104
sgRNA knockout: sgATF6, 10 nM | 94.3
sgRNA knockout: sgATF6, 100 nM | 88.6
sgRNA knockout: sgATF6, 1000 nM | 101
sgRNA knockout: sgATF6, 10000 nM | 112
sgRNA knockout: sgATG7, 10 nM | 98.1
sgRNA knockout: sgATG7, 100 nM | 114
sgRNA knockout: sgATG7, 1000 nM | 101
sgRNA knockout: sgATG7, 10000 nM | 116
sgRNA knockout: sgERN1, 10 nM | 93.4
sgRNA knockout: sgERN1, 100 nM | 99
sgRNA knockout: sgERN1, 1000 nM | 104
sgRNA knockout: sgERN1, 10000 nM | 104
sgRNA knockout: sgHSF1, 10 nM | 83.8
sgRNA knockout: sgHSF1, 100 nM | 93.1
sgRNA knockout: sgHSF1, 1000 nM | 112
sgRNA knockout: sgHSF1, 10000 nM | 110
sgRNA knockout: sgHSF2, 10 nM | 93.5
sgRNA knockout: sgHSF2, 100 nM | 109
sgRNA knockout: sgHSF2, 1000 nM | 112.1
sgRNA knockout: sgHSF2, 10000 nM | 126
sgRNA knockout: sgKEAP1, 10 nM | 91
sgRNA knockout: sgKEAP1, 100 nM | 91.7
sgRNA knockout: sgKEAP1, 1000 nM | 110.42
sgRNA knockout: sgKEAP1, 10000 nM | 101
sgRNA knockout: sgNFE2L2, 10 nM | 101
sgRNA knockout: sgNFE2L2, 100 nM | 108
sgRNA knockout: sgNFE2L2, 1000 nM | 120
sgRNA knockout: sgNFE2L2, 10000 nM | 116
sgRNA knockout: sgSLC35F2, 10 nM | 102
sgRNA knockout: sgSLC35F2, 100 nM | 113
sgRNA knockout: sgSLC35F2, 1000 nM | 114
sgRNA knockout: sgSLC35F2, 10000 nM | 114
sgRNA knockout: sgXBP1, 10 nM | 103
sgRNA knockout: sgXBP1, 100 nM | 85.8
sgRNA knockout: sgXBP1, 1000 nM | 105
sgRNA knockout: sgXBP1, 10000 nM | 114
